According to the supplement of paper PMC10849652:
This is one part of the list.

Protein sequences, listed by entry. Tags and fused reporters are not part of them. Lines headed by an entry give the natural chain unless they say otherwise; changes in a name come on top.
UniProt O00483, whole entry, looked up: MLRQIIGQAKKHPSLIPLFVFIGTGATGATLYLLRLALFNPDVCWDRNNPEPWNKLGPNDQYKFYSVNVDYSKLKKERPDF
UniProt Q6P582, whole entry, looked up: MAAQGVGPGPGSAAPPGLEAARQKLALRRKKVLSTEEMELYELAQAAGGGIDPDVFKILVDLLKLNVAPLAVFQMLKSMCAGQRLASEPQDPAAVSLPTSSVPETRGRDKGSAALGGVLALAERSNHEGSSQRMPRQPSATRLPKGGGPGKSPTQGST
UniProt O95139, whole entry, looked up: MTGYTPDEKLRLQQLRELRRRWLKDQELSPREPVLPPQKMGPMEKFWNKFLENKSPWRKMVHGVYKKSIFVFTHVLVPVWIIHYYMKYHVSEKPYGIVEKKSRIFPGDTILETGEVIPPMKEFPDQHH
UniProt P12036: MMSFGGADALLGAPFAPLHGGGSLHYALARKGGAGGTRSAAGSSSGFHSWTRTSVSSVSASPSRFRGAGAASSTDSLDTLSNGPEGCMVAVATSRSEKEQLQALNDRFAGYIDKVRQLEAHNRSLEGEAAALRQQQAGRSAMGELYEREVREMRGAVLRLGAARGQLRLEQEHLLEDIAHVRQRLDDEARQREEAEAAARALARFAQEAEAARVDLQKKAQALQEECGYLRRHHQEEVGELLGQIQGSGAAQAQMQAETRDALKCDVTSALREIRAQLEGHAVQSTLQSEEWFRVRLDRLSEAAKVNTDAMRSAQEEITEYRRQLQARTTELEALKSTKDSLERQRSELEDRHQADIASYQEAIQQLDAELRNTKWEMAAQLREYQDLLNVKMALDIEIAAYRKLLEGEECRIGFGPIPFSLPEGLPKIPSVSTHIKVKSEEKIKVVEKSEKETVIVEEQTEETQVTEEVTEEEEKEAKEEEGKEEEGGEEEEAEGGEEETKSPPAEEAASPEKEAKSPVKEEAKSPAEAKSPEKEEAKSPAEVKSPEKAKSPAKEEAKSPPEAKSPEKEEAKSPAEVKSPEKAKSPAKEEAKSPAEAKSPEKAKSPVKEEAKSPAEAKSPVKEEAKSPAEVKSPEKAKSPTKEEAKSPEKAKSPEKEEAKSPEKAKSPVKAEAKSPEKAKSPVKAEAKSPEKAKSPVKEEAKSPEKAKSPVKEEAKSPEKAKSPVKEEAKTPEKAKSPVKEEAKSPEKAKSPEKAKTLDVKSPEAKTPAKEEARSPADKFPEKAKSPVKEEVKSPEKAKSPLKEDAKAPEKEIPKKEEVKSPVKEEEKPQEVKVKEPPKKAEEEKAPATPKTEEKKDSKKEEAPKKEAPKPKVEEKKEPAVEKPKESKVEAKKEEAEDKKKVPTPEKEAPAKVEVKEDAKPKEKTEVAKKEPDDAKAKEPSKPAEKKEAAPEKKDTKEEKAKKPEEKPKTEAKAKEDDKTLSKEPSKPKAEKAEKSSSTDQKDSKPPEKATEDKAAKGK
UniProt P41227: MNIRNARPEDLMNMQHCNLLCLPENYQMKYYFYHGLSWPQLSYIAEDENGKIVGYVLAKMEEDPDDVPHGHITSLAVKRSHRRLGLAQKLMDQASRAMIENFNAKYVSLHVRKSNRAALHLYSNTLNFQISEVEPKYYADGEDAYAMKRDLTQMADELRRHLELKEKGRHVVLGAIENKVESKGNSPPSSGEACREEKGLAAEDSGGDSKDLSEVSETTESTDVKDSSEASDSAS
UniProt Q9UN36: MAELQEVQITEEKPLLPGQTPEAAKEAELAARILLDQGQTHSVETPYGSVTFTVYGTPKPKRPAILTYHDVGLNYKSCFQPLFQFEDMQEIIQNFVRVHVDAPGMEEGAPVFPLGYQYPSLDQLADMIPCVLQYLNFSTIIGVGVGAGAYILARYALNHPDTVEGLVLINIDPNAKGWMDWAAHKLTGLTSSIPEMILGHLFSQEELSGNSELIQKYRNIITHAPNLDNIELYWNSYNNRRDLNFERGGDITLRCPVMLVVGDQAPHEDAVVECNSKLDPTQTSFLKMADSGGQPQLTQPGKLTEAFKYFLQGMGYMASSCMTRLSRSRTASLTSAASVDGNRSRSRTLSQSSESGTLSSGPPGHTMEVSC
UniProt Q6IA69: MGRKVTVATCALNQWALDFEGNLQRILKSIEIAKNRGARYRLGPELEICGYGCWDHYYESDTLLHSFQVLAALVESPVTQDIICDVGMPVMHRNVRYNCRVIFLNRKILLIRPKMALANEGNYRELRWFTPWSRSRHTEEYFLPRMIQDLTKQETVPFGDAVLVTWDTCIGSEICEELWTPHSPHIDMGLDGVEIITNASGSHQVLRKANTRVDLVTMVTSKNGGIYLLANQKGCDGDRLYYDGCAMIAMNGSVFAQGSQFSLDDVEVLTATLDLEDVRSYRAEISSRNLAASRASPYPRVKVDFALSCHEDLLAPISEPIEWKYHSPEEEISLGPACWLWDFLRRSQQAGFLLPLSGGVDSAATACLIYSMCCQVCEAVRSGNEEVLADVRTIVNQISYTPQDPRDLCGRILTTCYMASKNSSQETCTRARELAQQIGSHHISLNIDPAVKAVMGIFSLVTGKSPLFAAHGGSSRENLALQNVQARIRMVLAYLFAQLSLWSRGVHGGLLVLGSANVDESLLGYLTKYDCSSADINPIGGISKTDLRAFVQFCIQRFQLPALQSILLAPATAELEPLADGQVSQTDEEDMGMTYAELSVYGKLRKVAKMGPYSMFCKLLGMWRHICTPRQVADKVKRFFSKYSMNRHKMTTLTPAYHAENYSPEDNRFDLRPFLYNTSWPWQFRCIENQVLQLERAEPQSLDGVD
UniProt O43678, whole entry, looked up: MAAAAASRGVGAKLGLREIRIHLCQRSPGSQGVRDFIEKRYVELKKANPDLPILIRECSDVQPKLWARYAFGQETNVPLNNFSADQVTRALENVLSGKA
UniProt O75376, whole entry, looked up: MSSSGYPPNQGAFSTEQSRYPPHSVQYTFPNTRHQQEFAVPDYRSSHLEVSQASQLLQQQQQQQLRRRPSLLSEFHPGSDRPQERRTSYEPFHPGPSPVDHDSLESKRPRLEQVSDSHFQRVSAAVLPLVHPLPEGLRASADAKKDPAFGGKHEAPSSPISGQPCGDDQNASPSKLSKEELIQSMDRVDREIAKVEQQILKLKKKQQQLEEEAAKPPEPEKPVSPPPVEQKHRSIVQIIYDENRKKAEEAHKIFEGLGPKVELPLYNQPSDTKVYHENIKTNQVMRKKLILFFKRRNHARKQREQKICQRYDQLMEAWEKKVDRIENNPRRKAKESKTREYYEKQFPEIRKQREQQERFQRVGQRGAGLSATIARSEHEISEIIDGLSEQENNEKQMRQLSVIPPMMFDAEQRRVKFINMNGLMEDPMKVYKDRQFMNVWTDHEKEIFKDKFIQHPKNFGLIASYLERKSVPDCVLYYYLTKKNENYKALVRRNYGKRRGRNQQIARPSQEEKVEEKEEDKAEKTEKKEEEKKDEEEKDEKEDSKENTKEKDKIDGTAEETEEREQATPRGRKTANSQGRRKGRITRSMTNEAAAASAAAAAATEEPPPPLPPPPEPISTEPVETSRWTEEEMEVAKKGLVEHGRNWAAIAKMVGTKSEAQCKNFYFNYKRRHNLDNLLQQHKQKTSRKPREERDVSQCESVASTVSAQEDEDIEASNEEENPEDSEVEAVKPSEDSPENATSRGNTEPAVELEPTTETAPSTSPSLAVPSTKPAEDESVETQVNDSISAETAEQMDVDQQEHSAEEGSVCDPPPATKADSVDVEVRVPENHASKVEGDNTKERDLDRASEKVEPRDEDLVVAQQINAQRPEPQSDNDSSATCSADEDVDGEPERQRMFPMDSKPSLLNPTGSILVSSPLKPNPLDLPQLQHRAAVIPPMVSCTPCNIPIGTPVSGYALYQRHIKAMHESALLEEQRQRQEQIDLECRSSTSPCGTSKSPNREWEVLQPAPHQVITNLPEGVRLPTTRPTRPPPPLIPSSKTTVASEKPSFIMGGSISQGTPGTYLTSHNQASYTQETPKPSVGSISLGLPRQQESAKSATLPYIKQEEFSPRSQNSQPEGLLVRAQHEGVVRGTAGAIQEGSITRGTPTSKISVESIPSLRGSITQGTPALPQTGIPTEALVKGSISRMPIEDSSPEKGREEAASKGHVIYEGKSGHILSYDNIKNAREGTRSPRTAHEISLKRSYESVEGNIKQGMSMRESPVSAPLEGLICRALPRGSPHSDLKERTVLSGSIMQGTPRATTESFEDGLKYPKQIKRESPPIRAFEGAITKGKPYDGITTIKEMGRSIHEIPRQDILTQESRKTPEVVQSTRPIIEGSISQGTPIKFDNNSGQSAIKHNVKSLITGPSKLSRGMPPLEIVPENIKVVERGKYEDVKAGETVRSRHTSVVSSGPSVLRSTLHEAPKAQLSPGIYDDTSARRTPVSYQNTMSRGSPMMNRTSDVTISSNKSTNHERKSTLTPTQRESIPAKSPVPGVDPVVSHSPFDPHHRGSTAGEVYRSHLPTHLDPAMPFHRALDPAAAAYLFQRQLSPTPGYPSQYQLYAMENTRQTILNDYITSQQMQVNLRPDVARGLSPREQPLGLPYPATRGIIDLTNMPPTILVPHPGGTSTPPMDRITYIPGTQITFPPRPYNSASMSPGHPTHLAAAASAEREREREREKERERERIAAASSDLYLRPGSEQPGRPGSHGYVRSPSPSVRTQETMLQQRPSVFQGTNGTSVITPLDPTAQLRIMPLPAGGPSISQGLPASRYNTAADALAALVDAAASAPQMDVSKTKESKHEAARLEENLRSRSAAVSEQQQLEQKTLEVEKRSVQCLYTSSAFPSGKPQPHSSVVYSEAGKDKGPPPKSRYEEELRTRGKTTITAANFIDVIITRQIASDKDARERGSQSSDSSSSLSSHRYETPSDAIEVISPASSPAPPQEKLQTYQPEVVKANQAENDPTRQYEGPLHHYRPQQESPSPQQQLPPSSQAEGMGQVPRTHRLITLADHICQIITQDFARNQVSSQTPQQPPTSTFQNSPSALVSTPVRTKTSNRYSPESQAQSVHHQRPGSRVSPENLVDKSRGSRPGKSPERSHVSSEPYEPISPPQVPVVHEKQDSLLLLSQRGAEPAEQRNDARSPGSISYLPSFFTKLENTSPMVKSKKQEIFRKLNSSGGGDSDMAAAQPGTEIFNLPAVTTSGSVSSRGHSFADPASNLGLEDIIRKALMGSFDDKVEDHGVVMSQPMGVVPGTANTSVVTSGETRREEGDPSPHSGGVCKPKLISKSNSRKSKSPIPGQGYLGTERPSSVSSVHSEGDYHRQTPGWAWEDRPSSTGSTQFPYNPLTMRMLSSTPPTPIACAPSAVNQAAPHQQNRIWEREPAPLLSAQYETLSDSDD
UniProt Q6XQN6: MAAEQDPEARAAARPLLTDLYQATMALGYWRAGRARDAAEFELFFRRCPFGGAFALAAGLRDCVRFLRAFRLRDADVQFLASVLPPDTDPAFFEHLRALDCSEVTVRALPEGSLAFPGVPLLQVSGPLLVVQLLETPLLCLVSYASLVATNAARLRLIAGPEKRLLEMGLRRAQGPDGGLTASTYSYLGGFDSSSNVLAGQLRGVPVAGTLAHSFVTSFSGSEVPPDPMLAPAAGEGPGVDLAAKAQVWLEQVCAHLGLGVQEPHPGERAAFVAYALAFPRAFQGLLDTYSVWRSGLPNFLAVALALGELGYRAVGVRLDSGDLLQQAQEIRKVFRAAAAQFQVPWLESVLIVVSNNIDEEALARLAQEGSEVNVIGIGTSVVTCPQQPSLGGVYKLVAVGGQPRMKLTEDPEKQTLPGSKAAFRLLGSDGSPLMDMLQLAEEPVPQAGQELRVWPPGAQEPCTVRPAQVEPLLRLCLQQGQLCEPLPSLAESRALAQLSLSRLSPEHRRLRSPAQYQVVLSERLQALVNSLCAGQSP
UniProt O95299, whole entry, looked up: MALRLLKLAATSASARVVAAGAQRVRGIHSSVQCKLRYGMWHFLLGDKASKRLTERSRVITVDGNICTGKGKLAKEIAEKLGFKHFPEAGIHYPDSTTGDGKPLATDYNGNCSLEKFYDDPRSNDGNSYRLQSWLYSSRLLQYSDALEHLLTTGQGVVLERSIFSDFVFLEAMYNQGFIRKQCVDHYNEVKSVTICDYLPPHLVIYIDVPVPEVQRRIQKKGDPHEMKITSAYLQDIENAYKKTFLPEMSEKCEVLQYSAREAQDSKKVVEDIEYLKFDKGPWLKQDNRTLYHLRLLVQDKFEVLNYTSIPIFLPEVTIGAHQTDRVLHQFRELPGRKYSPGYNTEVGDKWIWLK
UniProt O95182, whole entry, looked up: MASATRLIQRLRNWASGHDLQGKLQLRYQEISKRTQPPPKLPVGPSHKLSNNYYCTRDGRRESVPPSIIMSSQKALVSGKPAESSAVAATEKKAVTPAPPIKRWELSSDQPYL
UniProt Q8IW45: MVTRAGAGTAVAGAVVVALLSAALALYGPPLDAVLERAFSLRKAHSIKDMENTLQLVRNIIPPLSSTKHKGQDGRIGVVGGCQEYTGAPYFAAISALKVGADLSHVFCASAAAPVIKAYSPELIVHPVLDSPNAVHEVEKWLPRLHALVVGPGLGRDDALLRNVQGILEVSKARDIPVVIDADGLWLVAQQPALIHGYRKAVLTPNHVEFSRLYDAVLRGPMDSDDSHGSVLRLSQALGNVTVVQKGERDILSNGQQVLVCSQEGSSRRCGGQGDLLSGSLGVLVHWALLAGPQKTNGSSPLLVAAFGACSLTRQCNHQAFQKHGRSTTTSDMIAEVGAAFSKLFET

Compound: Cn1cncc1[C@@](N)(c1ccc(Cl)cc1)c1ccc2c(c1)c(-c1cccc(Cl)c1)cc(=O)n2C [tipifarnib]
Assay: log2 fold change, soluble protein after heating vs DMSO (PISA); higher = thermal stabilisation; K562 cells, 10 uM, 30 min; active = over 0.2 and 3.5 SD of the protein, either way, in both replicates (recomputed)
How it was run: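 K562 cells at 2×10^6 cells/mL were exposed to 10 μM compound for 30 min, then aliquots were heated for 3 min across 48°C-58°C, pooled, and extracted in PBS containing 0.5% NP-40 at 4°C. The supernatant after 21,000xg for 90 min was taken as soluble protein and measured by TMTpro 16plex LC-MS/MS with channel sums equalised. Thermal stability is reported relative to control samples, with values from duplicates. Fold changes are given on a log2 scale.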

| Target | log2 fold change |
| --- | --- |
| NDUFA4 (UniProt O00483) | inactive: 0.054 |
| MZT2A (UniProt Q6P582) | inactive: 0.017 |
| NDUFB6 (UniProt O95139) | inactive: 0.162 |
| NAA30 (UniProt Q147X3) | inactive: -0.041 |
| NDUFAF5 (UniProt Q5TEU4) | inactive: 0.066 |
| NEFH (UniProt P12036) | inactive: 0.185 |
| NCAPG2 isoform 2 (UniProt Q86XI2) | inactive: 0.041 |
| NDUFS5 (UniProt O43920) | inactive: 0.024 |
| NAA10 (UniProt P41227) | inactive: -0.032 |
| NDRG2 (UniProt Q9UN36) | inactive: -0.059 |
| NADSYN1 (UniProt Q6IA69) | inactive: -0.016 |
| NCOR2 (UniProt C9J0Q5) | inactive: -0.023 |
| NAP1L1 (UniProt P55209) | inactive: 0.001 |
| NECAP1 (UniProt Q8NC96) | inactive: -0.051 |
| NDUFA2 (UniProt O43678) | inactive: -0.11 |
| NCOR1 (UniProt O75376) | inactive: 0.103 |
| NAPRT (UniProt Q6XQN6) | inactive: 0 |
| NA, A0A0B4J2A0 | inactive: 0.007 |
| N6AMT1 (UniProt Q9Y5N5) | inactive: 0.025 |
| NDUFA10 (UniProt O95299) | inactive: -0.069 |
| NEBL isoform 2 (UniProt O76041) | inactive: 0.013 |
| NDUFA7 (UniProt O95182) | inactive: 0.002 |
| NAXD (UniProt Q8IW45) | inactive: 0.027 |

Some of the entries so far, with bars between the fields.
Target | log2 fold change
NEFH (UniProt P12036) | inactive: 0.185
NCAPG2 isoform 2 (UniProt Q86XI2) | inactive: 0.041
